Reference: PubChem BioAssay AID686938 (Drosophila RNAi Screening Center, 2013)
In all, the deposit lists about 23,000 reagents; this is a random part of those with a known target gene and a result. In the full data, 75 (0.33%) got an active call. 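Raw plate signals without normalisation; calls rest on plate z-scores that were not deposited; ratio present for only 364 wells.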 Reagents against one gene are numbered here. Not given: the dose of the treatment.

Aim: 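Looking for CRAC channel components and the factors controlling them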 (primary screen)
System: Drosophila S2R+ cells
Reagents: long dsRNA against Drosophila genes, about 0.25 µg dsRNA per well, roughly 10,000 cells
Time to read-out: 5 days of knock-down before the calcium assay
Conditions: thapsigargin (SERCA pump blocker) to empty calcium stores; entry signal taken 4 min after adding it
Measured: 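Duplicate raw fluo-4 intensities per well from a plate reader, at rest and four minutes after thapsigargin emptied calcium stores; entry-to-rest ratio filled for only some wells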
Reading the numbers: calcium entry signal: higher = stronger calcium signal after store depletion; resting calcium signal: higher = higher resting calcium signal
Hit rule: 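Hit if the duplicate-averaged plate z-score for entry over resting signal is under −3; wells with weak total dye signal (Fmax z < −2) or more than 5 off-targets removed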
Calls: active = strongly reduced calcium entry; inactive = no strong reduction

{"target gene": "CG33108", "dsRNA no.": 1, "calcium entry signal, replicate 1 (fluorescence units)": 3.28e7, "calcium entry signal, replicate 2 (fluorescence units)": 3.42e7, "resting calcium signal, replicate 1 (fluorescence units)": 1.73e7, "resting calcium signal, replicate 2 (fluorescence units)": 1.47e7, "Call": "inactive"}
{"target gene": "ptc", "dsRNA no.": 1, "calcium entry signal, replicate 1 (fluorescence units)": 1.62e7, "calcium entry signal, replicate 2 (fluorescence units)": 3.05e7, "resting calcium signal, replicate 1 (fluorescence units)": 9.39e6, "resting calcium signal, replicate 2 (fluorescence units)": 1.35e7, "Call": "inactive"}
{"target gene": "ptc", "dsRNA no.": 2, "calcium entry signal, replicate 1 (fluorescence units)": 4.87e7, "calcium entry signal, replicate 2 (fluorescence units)": 4.40e7, "resting calcium signal, replicate 1 (fluorescence units)": 2.35e7, "resting calcium signal, replicate 2 (fluorescence units)": 2.15e7, "Call": "inactive"}
{"target gene": "CG12056", "dsRNA no.": 1, "calcium entry signal, replicate 1 (fluorescence units)": 3.47e7, "calcium entry signal, replicate 2 (fluorescence units)": 3.74e7, "resting calcium signal, replicate 1 (fluorescence units)": 1.70e7, "resting calcium signal, replicate 2 (fluorescence units)": 1.82e7, "Call": "inactive"}
{"target gene": "spas", "dsRNA no.": 1, "calcium entry signal, replicate 1 (fluorescence units)": 2.18e7, "calcium entry signal, replicate 2 (fluorescence units)": 2.43e7, "resting calcium signal, replicate 1 (fluorescence units)": 1.08e7, "resting calcium signal, replicate 2 (fluorescence units)": 1.08e7, "Call": "inactive"}
{"target gene": "CG10527", "dsRNA no.": 1, "calcium entry signal, replicate 1 (fluorescence units)": 3.88e7, "resting calcium signal, replicate 1 (fluorescence units)": 1.97e7, "Call": "inactive"}
{"target gene": "CG6231", "dsRNA no.": 1, "calcium entry signal, replicate 1 (fluorescence units)": 3.89e7, "calcium entry signal, replicate 2 (fluorescence units)": 4.90e7, "resting calcium signal, replicate 1 (fluorescence units)": 6.42e7, "resting calcium signal, replicate 2 (fluorescence units)": 2.09e7, "Call": "inactive"}
{"target gene": "CG11291", "dsRNA no.": 1, "calcium entry signal, replicate 1 (fluorescence units)": 4.08e7, "calcium entry signal, replicate 2 (fluorescence units)": 4.64e7, "resting calcium signal, replicate 1 (fluorescence units)": 2.03e7, "resting calcium signal, replicate 2 (fluorescence units)": 2.09e7, "Call": "inactive"}
{"target gene": "Pex13", "dsRNA no.": 1, "calcium entry signal, replicate 1 (fluorescence units)": 2.33e7, "calcium entry signal, replicate 2 (fluorescence units)": 2.52e7, "resting calcium signal, replicate 1 (fluorescence units)": 1.09e7, "resting calcium signal, replicate 2 (fluorescence units)": 1.26e7, "Call": "inactive"}
{"target gene": "nerfin-2", "dsRNA no.": 1, "calcium entry signal, replicate 1 (fluorescence units)": 2.68e7, "calcium entry signal, replicate 2 (fluorescence units)": 2.39e7, "resting calcium signal, replicate 1 (fluorescence units)": 1.41e7, "resting calcium signal, replicate 2 (fluorescence units)": 1.27e7, "Call": "inactive"}
{"target gene": "CG7328", "dsRNA no.": 1, "calcium entry signal, replicate 1 (fluorescence units)": 3.04e7, "calcium entry signal, replicate 2 (fluorescence units)": 4.83e7, "resting calcium signal, replicate 1 (fluorescence units)": 1.56e7, "resting calcium signal, replicate 2 (fluorescence units)": 2.00e7, "Call": "inactive"}
{"target gene": "Tom70", "dsRNA no.": 1, "calcium entry signal, replicate 1 (fluorescence units)": 3.63e7, "calcium entry signal, replicate 2 (fluorescence units)": 5.67e7, "resting calcium signal, replicate 1 (fluorescence units)": 1.69e7, "resting calcium signal, replicate 2 (fluorescence units)": 2.77e7, "Call": "inactive"}
{"target gene": "CG32700", "dsRNA no.": 1, "calcium entry signal, replicate 1 (fluorescence units)": 3.50e7, "calcium entry signal, replicate 2 (fluorescence units)": 4.55e7, "resting calcium signal, replicate 1 (fluorescence units)": 1.80e7, "resting calcium signal, replicate 2 (fluorescence units)": 2.17e7, "Call": "inactive"}
{"target gene": "CG32700", "dsRNA no.": 2, "calcium entry signal, replicate 1 (fluorescence units)": 3.78e7, "calcium entry signal, replicate 2 (fluorescence units)": 4.13e7, "resting calcium signal, replicate 1 (fluorescence units)": 1.86e7, "resting calcium signal, replicate 2 (fluorescence units)": 1.88e7, "Call": "inactive"}

Continued (3 carried over from the part before).
{"target gene": "Tom70", "dsRNA no.": 1, "calcium entry signal, replicate 1 (fluorescence units)": 3.63e7, "calcium entry signal, replicate 2 (fluorescence units)": 5.67e7, "resting calcium signal, replicate 1 (fluorescence units)": 1.69e7, "resting calcium signal, replicate 2 (fluorescence units)": 2.77e7, "Call": "inactive"}
{"target gene": "CG32700", "dsRNA no.": 1, "calcium entry signal, replicate 1 (fluorescence units)": 3.50e7, "calcium entry signal, replicate 2 (fluorescence units)": 4.55e7, "resting calcium signal, replicate 1 (fluorescence units)": 1.80e7, "resting calcium signal, replicate 2 (fluorescence units)": 2.17e7, "Call": "inactive"}
{"target gene": "CG32700", "dsRNA no.": 2, "calcium entry signal, replicate 1 (fluorescence units)": 3.78e7, "calcium entry signal, replicate 2 (fluorescence units)": 4.13e7, "resting calcium signal, replicate 1 (fluorescence units)": 1.86e7, "resting calcium signal, replicate 2 (fluorescence units)": 1.88e7, "Call": "inactive"}
{"target gene": "colt", "dsRNA no.": 1, "calcium entry signal, replicate 1 (fluorescence units)": 4.16e7, "resting calcium signal, replicate 1 (fluorescence units)": 2.26e7, "Call": "inactive"}
{"target gene": "Cyt-c-d", "dsRNA no.": 1, "calcium entry signal, replicate 1 (fluorescence units)": 3.24e7, "calcium entry signal, replicate 2 (fluorescence units)": 2.29e7, "resting calcium signal, replicate 1 (fluorescence units)": 1.47e7, "resting calcium signal, replicate 2 (fluorescence units)": 1.08e7, "Call": "inactive"}
{"target gene": "fne", "dsRNA no.": 1, "calcium entry signal, replicate 1 (fluorescence units)": 3.37e7, "calcium entry signal, replicate 2 (fluorescence units)": 3.63e7, "resting calcium signal, replicate 1 (fluorescence units)": 2.07e7, "resting calcium signal, replicate 2 (fluorescence units)": 2.14e7, "Call": "inactive"}
{"target gene": "fne", "dsRNA no.": 2, "calcium entry signal, replicate 1 (fluorescence units)": 3.18e7, "calcium entry signal, replicate 2 (fluorescence units)": 3.25e7, "resting calcium signal, replicate 1 (fluorescence units)": 1.54e7, "resting calcium signal, replicate 2 (fluorescence units)": 1.23e7, "Call": "inactive"}
{"target gene": "CG13692", "dsRNA no.": 1, "calcium entry signal, replicate 1 (fluorescence units)": 3.85e7, "calcium entry signal, replicate 2 (fluorescence units)": 3.61e7, "resting calcium signal, replicate 1 (fluorescence units)": 1.84e7, "resting calcium signal, replicate 2 (fluorescence units)": 1.63e7, "Call": "inactive"}
{"target gene": "stau", "dsRNA no.": 1, "calcium entry signal, replicate 1 (fluorescence units)": 3.51e7, "calcium entry signal, replicate 2 (fluorescence units)": 3.89e7, "resting calcium signal, replicate 1 (fluorescence units)": 1.70e7, "resting calcium signal, replicate 2 (fluorescence units)": 1.77e7, "Call": "inactive"}
{"target gene": "CG11396", "dsRNA no.": 1, "calcium entry signal, replicate 1 (fluorescence units)": 3.06e7, "calcium entry signal, replicate 2 (fluorescence units)": 5.09e7, "resting calcium signal, replicate 1 (fluorescence units)": 1.48e7, "resting calcium signal, replicate 2 (fluorescence units)": 1.99e7, "Call": "inactive"}
{"target gene": "PpD6", "dsRNA no.": 1, "calcium entry signal, replicate 1 (fluorescence units)": 3.10e7, "calcium entry signal, replicate 2 (fluorescence units)": 2.22e7, "resting calcium signal, replicate 1 (fluorescence units)": 1.56e7, "resting calcium signal, replicate 2 (fluorescence units)": 1.07e7, "Call": "inactive"}
{"target gene": "PpD6", "dsRNA no.": 2, "calcium entry signal, replicate 1 (fluorescence units)": 3.11e7, "calcium entry signal, replicate 2 (fluorescence units)": 3.37e7, "resting calcium signal, replicate 1 (fluorescence units)": 1.71e7, "resting calcium signal, replicate 2 (fluorescence units)": 1.52e7, "Call": "inactive"}
{"target gene": "CG9498", "dsRNA no.": 1, "calcium entry signal, replicate 1 (fluorescence units)": 3.01e7, "calcium entry signal, replicate 2 (fluorescence units)": 4.06e7, "resting calcium signal, replicate 1 (fluorescence units)": 1.61e7, "resting calcium signal, replicate 2 (fluorescence units)": 2.04e7, "Call": "inactive"}
{"target gene": "CG1824", "dsRNA no.": 1, "calcium entry signal, replicate 1 (fluorescence units)": 2.83e7, "calcium entry signal, replicate 2 (fluorescence units)": 4.51e7, "resting calcium signal, replicate 1 (fluorescence units)": 1.41e7, "resting calcium signal, replicate 2 (fluorescence units)": 2.04e7, "Call": "inactive"}
{"target gene": "Adgf-E", "dsRNA no.": 1, "calcium entry signal, replicate 1 (fluorescence units)": 2.54e7, "calcium entry signal, replicate 2 (fluorescence units)": 4.01e7, "resting calcium signal, replicate 1 (fluorescence units)": 1.44e7, "resting calcium signal, replicate 2 (fluorescence units)": 1.77e7, "Call": "inactive"}
{"target gene": "TM9SF2", "dsRNA no.": 1, "calcium entry signal, replicate 1 (fluorescence units)": 2.13e7, "resting calcium signal, replicate 1 (fluorescence units)": 1.19e7, "Call": "inactive"}
